# Data taken from patent US20160046678A1 (ZYNGENIA, published 2016).
# Chains of the proteins cited; added tags and fusions are not shown. Residues count along the entry.
# UniProt P08887, residues 20-358: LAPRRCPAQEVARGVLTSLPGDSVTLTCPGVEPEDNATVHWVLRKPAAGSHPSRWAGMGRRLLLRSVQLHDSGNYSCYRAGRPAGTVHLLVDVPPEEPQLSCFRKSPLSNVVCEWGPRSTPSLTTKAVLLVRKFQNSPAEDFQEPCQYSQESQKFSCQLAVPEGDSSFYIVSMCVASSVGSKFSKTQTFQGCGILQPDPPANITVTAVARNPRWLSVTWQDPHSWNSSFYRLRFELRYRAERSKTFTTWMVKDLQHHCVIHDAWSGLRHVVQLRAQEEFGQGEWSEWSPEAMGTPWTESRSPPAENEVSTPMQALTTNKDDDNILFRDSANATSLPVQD
# These are yes or no findings as the source states them, for the method shown. Some results given as binding are weak or reduced against the parent protein; the word gives no strength.
# T1: TL1A (UniProt O95150)
# T1 sequence (looked up): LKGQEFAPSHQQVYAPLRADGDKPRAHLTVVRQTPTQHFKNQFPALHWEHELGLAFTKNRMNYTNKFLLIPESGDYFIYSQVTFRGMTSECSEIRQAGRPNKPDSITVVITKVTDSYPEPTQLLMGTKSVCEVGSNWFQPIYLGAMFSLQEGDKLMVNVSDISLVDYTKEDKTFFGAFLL
# B1: ILC80 (peptide)
# peptide: RDWRCYLMAHWVHVCGPFIGQAGQGGPGWAGGSDMDLCQDWVYESKYCVPLA
# Target: IL6R (UniProt P08887)
# Test: peptide selection, Example 48
row,Binder,binding
1,GDWEWVWDWCF [ILC19],binds
2,PCQWVIYHCF [ILC20],binds
3,WEIEWSWYWD [ILC21],binds
4,FYMEFIIWSP [ILC23],binds
5,WYWMLEWEWD [ILC24],binds
6,PCEEAFAAYLE [ILC25],binds
7,QCFAWEFVWHCD [ILC27],binds
8,YTWDLYIYQA [ILC28],binds
9,MYTEWQMWWIGQAGQGGGSGGGGSFYDQWEVELH [ILC31],binds
10,AEFDWMQYGYGQAGQGGGSGGGGSYEFNWKYQEW [ILC33],binds
11,YMQWKVEWWG [ILC34],binds
12,WEITWDWEYY [ILC35],binds
13,WCLITPWEVQCY [ILC39],binds
14,TTMVFQASLG [ILC40],binds
15,LCFCYEYEWVH [ILC41],binds
16,HWEFYYEFGI [ILC42],binds
17,LCYWEVWFTWE [ILC43],binds
18,PCYLVMMEWECM [ILC44],binds
19,GCDFYMNLCK [ILC46],binds
20,WQEQWWYKQH [ILC50],binds
21,SELSCYWEMKWECSWVT [ILC52],binds
22,FCWSCEVFQMEICDELG [ILC53],binds
23,HALHCANEERIFVQCLESS [ILC55],binds
24,VYLECNVYEWPEAWCVVMP [ILC56],binds

row,Binder,binding
1,TQHLCAWDVRSQADMCIYWT [ILC57],binds
2,QVYVCYVLAEQHEAICTSWA [ILC58],binds
3,LTWVCTVMQHMNHMECLLDL [ILC59],binds
4,MLLHCPAMWKCQSDL [ILC60],binds
5,LTWDCYQVFEEWYDCTMSH [ILC61],binds
6,VWGGCWYHFTIQHWCPTLS [ILC62],binds
7,MTILCYEQREDMWDCWNVF [ILC63],binds
8,LDCACHFEEHVRTIFCSIGH [ILC64],binds
9,WLVDCWVVEDMNMICRLYE [ILC65],binds
10,LDFLCYENIHNNFDCFRVM [ILC66],binds
11,VASHCIQMPHWLLCQTLI [ILC67],binds
12,WTVWCEWENEYGGWCDVSL [ILC70],binds
13,LQCKCDEPYPSYYTCRVYF [ILC71],binds
14,GPFMCMMDLHRDELLHCWASD [ILC74],binds
15,VAVDCFWVTPYEPWYCTVMS [ILC75],binds
16,MTDRCYTYEWQYTVCYGRN [ILC77],binds
17,B1,binds
18,SRYVICDLDMVFRECHGAF [ILC83],binds
19,SALVLCELEMVFRECHGVL [ILC84],binds
20,SEFILCDLAMVFAECHGAA [ILC86],binds
21,SELLLCAFDMVISECHGTT [ILC89],binds
22,DSFGCTWEVWGRECHPQL [ILC90],binds
23,SEFIFCDLEMVFRECHGTT [ILC93],binds
24,SEFVYCMLDMVFRECHGTA [ILC95],binds

# Target: T1, TL1A
# Test: peptide selection, Example 48
row,Binder,binding
1,EYDVCWDVDLDRLVYCATTY [TLA452],binds
2,EYEVCWDFQVDRLVYCMAIT [TLA453],binds
3,DYEVCWDIIVDRLVYCEAPP [TLA454],binds
4,YYEVCWDLYLDRLVFCNADL [TLA455],binds
5,DYEVCWDFREDRLVYCDSIM [TLA457],binds
6,DYAVCWDFHLNRLVYCDVPV [TLA458],binds
7,EYDVCWDFQLDRLVYCDSQM [TLA459],binds
8,DYAVCWDFDEDRLVYCVGPL [TLA460],binds
9,SERDCNIQKMRKVPCLVML [TLA461],binds
10,SDWACPMYMHEIECSVRW [TLA464],binds
11,VPEVCQWEFVKCLWNA [TLA468],binds
12,AAWQCLDPEWWVCVMLN [TLA475],binds
13,LVSSCPYGTPSAVCNGMW [TLA485],binds
14,GTVYCQPYMSVMECAFRA [TLA489],binds
15,EDFLCYPAPWVLSAAGT [TLA491],binds
16,VSGGCPSYMNQWECVFRW [TLA493],binds
17,HVELCFDKMRYCIMEL [TLA495],binds
18,TLLACQLKFIKCLNNW [TLA519],binds
19,LVFLCPGYRAQHHCVLLS [TLA520],binds
20,QDRVCWDFHLQKLQFCELSM [TLA521],binds
